Reference: PubChem BioAssay AID743458 (Peter MacCallum Cancer Centre, 2014)
Here is one part, drawn at random, of about 1,800 reagents. In the full data, 732 (41%) got an active call. 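Calls are per siRNA reagent; a gene was deemed confirmed only if most of its four siRNAs scored.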 A number with no mark means an inactive call. Reagents against one gene are numbered here.

Assay: 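Identify genes whose loss lifts vorinostat resistance in colon cancer cells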 (follow-up of hits)
System: human HCT116-VR colon cancer cells made resistant to vorinostat
Reagents: single siRNA or pool against human genes, 25 nM per single siRNA
Duration: about 72 h after transfection, including 24 h of drug
Challenge: vorinostat, 2.5 µM final, for 24 h
Read-out: 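Live-cell fluorescent viability and luminescent caspase 3/7 activity after vorinostat treatment, background subtracted, mean of duplicate plates, as fold change over mock-transfected wells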
Reading the numbers: viability relative to mock: higher = more living cells than mock; caspase activity relative to mock: higher = more apoptosis than mock
Hit rule: 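Active means a reduced-viability or caspase-activation class, anything else inactive; classes could only be given to wells that looked healthy when left untreated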

Depletion of CMTM1 (CKLF like MARVEL transmembrane domain containing 1) #1 resulted in: viability relative to mock 0.66 (active); caspase activity relative to mock 3.24; viability hit class no change; caspase hit class caspase activation.
Against CMTM1 (CKLF like MARVEL transmembrane domain containing 1) #2, the values are viability relative to mock 0.82; caspase activity relative to mock 1.57; viability hit class no change; caspase hit class no change.
Against CMTM1 (CKLF like MARVEL transmembrane domain containing 1) #3, the entry reads viability relative to mock 0.57 (active); caspase activity relative to mock 4; viability hit class no change; caspase hit class caspase activation.
Depletion of CMTM1 (CKLF like MARVEL transmembrane domain containing 1) #4 came out at: viability relative to mock 0.86; caspase activity relative to mock 1.25; viability hit class no change; caspase hit class no change.
For FOXI1 (forkhead box I1) #1 the deposit lists viability relative to mock 0.64; caspase activity relative to mock 2.23; viability hit class no change; caspase hit class no change.
FOXI1 (forkhead box I1) #2 showed viability relative to mock 0.98; caspase activity relative to mock 1.47; viability hit class no change; caspase hit class no change.
After knock-down of FOXI1 (forkhead box I1) #3 the results were viability relative to mock 0.97; caspase activity relative to mock 1.17; viability hit class no change; caspase hit class no change.
Silencing of FOXI1 (forkhead box I1) #4 resulted in: viability relative to mock 0.94; caspase activity relative to mock 1.67; viability hit class no change; caspase hit class no change.
Silencing of ARL14 (ARF like GTPase 14) #1 resulted in: viability relative to mock 0.5 (active); caspase activity relative to mock 2.82; viability hit class reduced viability; caspase hit class caspase activation.
Depletion of ARL14 (ARF like GTPase 14) #2 came out at: viability relative to mock 0.8; caspase activity relative to mock 1.29; viability hit class no change; caspase hit class no change.
Depletion of ARL14 (ARF like GTPase 14) #3 came out at: viability relative to mock 0.97; caspase activity relative to mock 1.36; viability hit class no change; caspase hit class no change.
Silencing of ARL14 (ARF like GTPase 14) #4 came out at: viability relative to mock 0.72; caspase activity relative to mock 1.12; viability hit class no change; caspase hit class no change.
ZNF441 (zinc finger protein 441) #1 showed viability relative to mock 0.8 (active); caspase activity relative to mock 3.67; viability hit class no change; caspase hit class caspase activation.
Against ZNF441 (zinc finger protein 441) #2, the values are viability relative to mock 0.48 (active); caspase activity relative to mock 4.42; viability hit class reduced viability; caspase hit class caspase activation.
Knock-down of ZNF441 (zinc finger protein 441) #3 came out at: viability relative to mock 0.62 (active); caspase activity relative to mock 4.31; viability hit class no change; caspase hit class caspase activation.
Silencing of ZNF441 (zinc finger protein 441) #4 came out at: viability relative to mock 0.82; caspase activity relative to mock 1.96; viability hit class no change; caspase hit class no change.
Against CHRNA7 (cholinergic receptor nicotinic alpha 7 subunit) #1, the values are viability relative to mock 0.52 (active); caspase activity relative to mock 0.72; viability hit class reduced viability; caspase hit class no change.
Silencing of CHRNA7 (cholinergic receptor nicotinic alpha 7 subunit) #2 resulted in: viability relative to mock 1; caspase activity relative to mock 1.34; viability hit class no change; caspase hit class no change.
Silencing of CHRNA7 (cholinergic receptor nicotinic alpha 7 subunit) #3 gave: viability relative to mock 0.85; caspase activity relative to mock 0.84; viability hit class no change; caspase hit class no change.
After knock-down of CHRNA7 (cholinergic receptor nicotinic alpha 7 subunit) #4 the results were viability relative to mock 1.02; caspase activity relative to mock 0.94; viability hit class no change; caspase hit class no change.
With knock-down of TOMM70 (translocase of outer mitochondrial membrane 70) #1 the results were viability relative to mock 0.69; caspase activity relative to mock 1.29; viability hit class no change; caspase hit class no change.
TOMM70 (translocase of outer mitochondrial membrane 70) #2 showed viability relative to mock 0.88 (active); caspase activity relative to mock 3; viability hit class no change; caspase hit class caspase activation.
For TOMM70 (translocase of outer mitochondrial membrane 70) #3, the values are viability relative to mock 0.4 (active); caspase activity relative to mock 2.5; viability hit class reduced viability; caspase hit class no change.
TOMM70 (translocase of outer mitochondrial membrane 70) #4 showed viability relative to mock 0.88; caspase activity relative to mock 0.9; viability hit class no change; caspase hit class no change.

Ordered by “viability relative to mock” (lowest first): 2 of the entries above.
ZNF441 (zinc finger protein 441) #3: viability relative to mock = 0.62 (active); caspase activity relative to mock = 4.31; viability hit class = no change; caspase hit class = caspase activation
ZNF441 (zinc finger protein 441) #4: viability relative to mock = 0.82; caspase activity relative to mock = 1.96; viability hit class = no change; caspase hit class = no change
